Data reported in article PMC8206213, “An L-2-hydroxyglutarate biosensor based on specific transcriptional regulator LhgR” (Nature Communications, 2021).
Where no unit stands, none is given here, and values compare only within one read-out.

Experiment: Emission and excitation spectra of purified LHGFR with or without 100 μM L-2-HG
Assay type: binding

## O=C(O)CC[C@H](O)C(=O)O [L-2-HG, L-2-Hydroxyglutarate]
Suppl. Fig. 4a emission spectrum, 452 nm
  fluorescence intensity: 15600
Suppl. Fig. 4a emission spectrum, 454 nm
  fluorescence intensity: 15800
Suppl. Fig. 4a emission spectrum, 456 nm
  fluorescence intensity: 17000
Suppl. Fig. 4a emission spectrum, 458 nm
  fluorescence intensity: 11600
Suppl. Fig. 4a emission spectrum, 460 nm
  fluorescence intensity: 24600
Suppl. Fig. 4a emission spectrum, 462 nm
  fluorescence intensity: 33200
Suppl. Fig. 4a emission spectrum, 464 nm
  fluorescence intensity: 55000
Suppl. Fig. 4a emission spectrum, 466 nm
  fluorescence intensity: 69800
Suppl. Fig. 4a emission spectrum, 468 nm
  fluorescence intensity: 87800
Suppl. Fig. 4a emission spectrum, 470 nm
  fluorescence intensity: 142600
Suppl. Fig. 4a emission spectrum, 472 nm
  fluorescence intensity: 193600
Suppl. Fig. 4a emission spectrum, 474 nm
  fluorescence intensity: 266800
Suppl. Fig. 4a emission spectrum, 476 nm
  fluorescence intensity: 381200
Suppl. Fig. 4a emission spectrum, 478 nm
  fluorescence intensity: 503400
Suppl. Fig. 4a emission spectrum, 480 nm
  fluorescence intensity: 605800
Suppl. Fig. 4a emission spectrum, 482 nm
  fluorescence intensity: 741000
Suppl. Fig. 4a emission spectrum, 484 nm
  fluorescence intensity: 892600
Suppl. Fig. 4a emission spectrum, 486 nm
  fluorescence intensity: 1.04E+06
Suppl. Fig. 4a emission spectrum, 488 nm
  fluorescence intensity: 1.15E+06
Suppl. Fig. 4a emission spectrum, 490 nm
  fluorescence intensity: 1.26E+06
Suppl. Fig. 4a emission spectrum, 492 nm
  fluorescence intensity: 1.28E+06
Suppl. Fig. 4a emission spectrum, 494 nm
  fluorescence intensity: 1.32E+06
Suppl. Fig. 4a emission spectrum, 496 nm
  fluorescence intensity: 1.31E+06
Suppl. Fig. 4a emission spectrum, 498 nm
  fluorescence intensity: 1.28E+06
Suppl. Fig. 4a emission spectrum, 500 nm
  fluorescence intensity: 1.24E+06
Suppl. Fig. 4a emission spectrum, 502 nm
  fluorescence intensity: 1.19E+06
Suppl. Fig. 4a emission spectrum, 504 nm
  fluorescence intensity: 1.18E+06
Suppl. Fig. 4a emission spectrum, 506 nm
  fluorescence intensity: 1.13E+06
Suppl. Fig. 4a emission spectrum, 508 nm
  fluorescence intensity: 1.10E+06
Suppl. Fig. 4a emission spectrum, 510 nm
  fluorescence intensity: 1.08E+06
Suppl. Fig. 4a emission spectrum, 512 nm
  fluorescence intensity: 1.12E+06
Suppl. Fig. 4a emission spectrum, 514 nm
  fluorescence intensity: 1.20E+06
Suppl. Fig. 4a emission spectrum, 516 nm
  fluorescence intensity: 1.33E+06
Suppl. Fig. 4a emission spectrum, 518 nm
  fluorescence intensity: 1.54E+06
Suppl. Fig. 4a emission spectrum, 520 nm
  fluorescence intensity: 1.75E+06
Suppl. Fig. 4a emission spectrum, 522 nm
  fluorescence intensity: 1.97E+06
Suppl. Fig. 4a emission spectrum, 524 nm
  fluorescence intensity: 2.17E+06
Suppl. Fig. 4a emission spectrum, 526 nm
  fluorescence intensity: 2.30E+06
Suppl. Fig. 4a emission spectrum, 528 nm
  fluorescence intensity: 2.34E+06
Suppl. Fig. 4a emission spectrum, 530 nm
  fluorescence intensity: 2.34E+06
Suppl. Fig. 4a emission spectrum, 532 nm
  fluorescence intensity: 2.23E+06
Suppl. Fig. 4a emission spectrum, 534 nm
  fluorescence intensity: 2.08E+06
Suppl. Fig. 4a emission spectrum, 536 nm
  fluorescence intensity: 1.93E+06
Suppl. Fig. 4a emission spectrum, 538 nm
  fluorescence intensity: 1.77E+06
Suppl. Fig. 4a emission spectrum, 540 nm
  fluorescence intensity: 1.60E+06
Suppl. Fig. 4a emission spectrum, 542 nm
  fluorescence intensity: 1.42E+06
Suppl. Fig. 4a emission spectrum, 544 nm
  fluorescence intensity: 1.32E+06
Suppl. Fig. 4a emission spectrum, 546 nm
  fluorescence intensity: 1.18E+06
Suppl. Fig. 4a emission spectrum, 548 nm
  fluorescence intensity: 1.05E+06
Suppl. Fig. 4a emission spectrum, 550 nm
  fluorescence intensity: 963000
Suppl. Fig. 4a emission spectrum, 552 nm
  fluorescence intensity: 855800
Suppl. Fig. 4a emission spectrum, 554 nm
  fluorescence intensity: 790000
Suppl. Fig. 4a emission spectrum, 556 nm
  fluorescence intensity: 741600
Suppl. Fig. 4a emission spectrum, 558 nm
  fluorescence intensity: 701600
Suppl. Fig. 4a emission spectrum, 560 nm
  fluorescence intensity: 662800
Suppl. Fig. 4a emission spectrum, 562 nm
  fluorescence intensity: 608600
Suppl. Fig. 4a emission spectrum, 564 nm
  fluorescence intensity: 592200
Suppl. Fig. 4a emission spectrum, 566 nm
  fluorescence intensity: 540600
Suppl. Fig. 4a emission spectrum, 568 nm
  fluorescence intensity: 508600
Suppl. Fig. 4a emission spectrum, 570 nm
  fluorescence intensity: 482000
Suppl. Fig. 4a emission spectrum, 572 nm
  fluorescence intensity: 438800
Suppl. Fig. 4a emission spectrum, 574 nm
  fluorescence intensity: 409200
Suppl. Fig. 4a emission spectrum, 576 nm
  fluorescence intensity: 378200
Suppl. Fig. 4a emission spectrum, 578 nm
  fluorescence intensity: 360800
Suppl. Fig. 4a emission spectrum, 580 nm
  fluorescence intensity: 318800
Suppl. Fig. 4b excitation spectrum, 380 nm
  fluorescence intensity: 65901
Suppl. Fig. 4b excitation spectrum, 382 nm
  fluorescence intensity: 65894
Suppl. Fig. 4b excitation spectrum, 384 nm
  fluorescence intensity: 67958
Suppl. Fig. 4b excitation spectrum, 386 nm
  fluorescence intensity: 75896
Suppl. Fig. 4b excitation spectrum, 388 nm
  fluorescence intensity: 85380
Suppl. Fig. 4b excitation spectrum, 390 nm
  fluorescence intensity: 93067
Suppl. Fig. 4b excitation spectrum, 392 nm
  fluorescence intensity: 99606
Suppl. Fig. 4b excitation spectrum, 394 nm
  fluorescence intensity: 104178
Suppl. Fig. 4b excitation spectrum, 396 nm
  fluorescence intensity: 107353
Suppl. Fig. 4b excitation spectrum, 398 nm
  fluorescence intensity: 114435
Suppl. Fig. 4b excitation spectrum, 400 nm
  fluorescence intensity: 121811
Suppl. Fig. 4b excitation spectrum, 402 nm
  fluorescence intensity: 130492
Suppl. Fig. 4b excitation spectrum, 404 nm
  fluorescence intensity: 142193
Suppl. Fig. 4b excitation spectrum, 406 nm
  fluorescence intensity: 154388
Suppl. Fig. 4b excitation spectrum, 408 nm
  fluorescence intensity: 173124
Suppl. Fig. 4b excitation spectrum, 410 nm
  fluorescence intensity: 213570
Suppl. Fig. 4b excitation spectrum, 412 nm
  fluorescence intensity: 250409
Suppl. Fig. 4b excitation spectrum, 414 nm
  fluorescence intensity: 279233
Suppl. Fig. 4b excitation spectrum, 416 nm
  fluorescence intensity: 296662
Suppl. Fig. 4b excitation spectrum, 418 nm
  fluorescence intensity: 320954
Suppl. Fig. 4b excitation spectrum, 420 nm
  fluorescence intensity: 335336
Suppl. Fig. 4b excitation spectrum, 422 nm
  fluorescence intensity: 353722
Suppl. Fig. 4b excitation spectrum, 424 nm
  fluorescence intensity: 371885
Suppl. Fig. 4b excitation spectrum, 426 nm
  fluorescence intensity: 387852
Suppl. Fig. 4b excitation spectrum, 428 nm
  fluorescence intensity: 405888
Suppl. Fig. 4b excitation spectrum, 430 nm
  fluorescence intensity: 434241
Suppl. Fig. 4b excitation spectrum, 432 nm
  fluorescence intensity: 475544
Suppl. Fig. 4b excitation spectrum, 434 nm
  fluorescence intensity: 547867
Suppl. Fig. 4b excitation spectrum, 436 nm
  fluorescence intensity: 642665
Suppl. Fig. 4b excitation spectrum, 438 nm
  fluorescence intensity: 687870
Suppl. Fig. 4b excitation spectrum, 440 nm
  fluorescence intensity: 722951
Suppl. Fig. 4b excitation spectrum, 442 nm
  fluorescence intensity: 752297
Suppl. Fig. 4b excitation spectrum, 444 nm
  fluorescence intensity: 780632
Suppl. Fig. 4b excitation spectrum, 446 nm
  fluorescence intensity: 813150
Suppl. Fig. 4b excitation spectrum, 448 nm
  fluorescence intensity: 840940
Suppl. Fig. 4b excitation spectrum, 450 nm
  fluorescence intensity: 878660
Suppl. Fig. 4b excitation spectrum, 452 nm
  fluorescence intensity: 909752
Suppl. Fig. 4b excitation spectrum, 454 nm
  fluorescence intensity: 935396
Suppl. Fig. 4b excitation spectrum, 456 nm
  fluorescence intensity: 1.00E+06
Suppl. Fig. 4b excitation spectrum, 458 nm
  fluorescence intensity: 1.08E+06
Suppl. Fig. 4b excitation spectrum, 460 nm
  fluorescence intensity: 1.16E+06
Suppl. Fig. 4b excitation spectrum, 462 nm
  fluorescence intensity: 1.20E+06
